Results: the supplement of paper PMC7666118
This is one part of the list.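 Rule for the calls: active = dose-dependent thermal stabilisation significant by F-test of dose-response against flat model at 10% FDR; inactive = not significant.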

Chains of the proteins cited; added tags and fusions are not shown. Lines headed by an entry give the natural chain unless they say otherwise; changes in a name come on top.
UniProt Q6UWP2: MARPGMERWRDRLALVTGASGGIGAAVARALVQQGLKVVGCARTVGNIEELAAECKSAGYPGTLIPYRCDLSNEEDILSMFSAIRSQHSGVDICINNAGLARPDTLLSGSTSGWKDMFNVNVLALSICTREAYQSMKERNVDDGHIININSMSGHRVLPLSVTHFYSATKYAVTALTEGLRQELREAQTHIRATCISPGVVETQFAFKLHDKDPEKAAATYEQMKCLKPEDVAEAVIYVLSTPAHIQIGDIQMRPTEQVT
UniProt Q1MSJ5: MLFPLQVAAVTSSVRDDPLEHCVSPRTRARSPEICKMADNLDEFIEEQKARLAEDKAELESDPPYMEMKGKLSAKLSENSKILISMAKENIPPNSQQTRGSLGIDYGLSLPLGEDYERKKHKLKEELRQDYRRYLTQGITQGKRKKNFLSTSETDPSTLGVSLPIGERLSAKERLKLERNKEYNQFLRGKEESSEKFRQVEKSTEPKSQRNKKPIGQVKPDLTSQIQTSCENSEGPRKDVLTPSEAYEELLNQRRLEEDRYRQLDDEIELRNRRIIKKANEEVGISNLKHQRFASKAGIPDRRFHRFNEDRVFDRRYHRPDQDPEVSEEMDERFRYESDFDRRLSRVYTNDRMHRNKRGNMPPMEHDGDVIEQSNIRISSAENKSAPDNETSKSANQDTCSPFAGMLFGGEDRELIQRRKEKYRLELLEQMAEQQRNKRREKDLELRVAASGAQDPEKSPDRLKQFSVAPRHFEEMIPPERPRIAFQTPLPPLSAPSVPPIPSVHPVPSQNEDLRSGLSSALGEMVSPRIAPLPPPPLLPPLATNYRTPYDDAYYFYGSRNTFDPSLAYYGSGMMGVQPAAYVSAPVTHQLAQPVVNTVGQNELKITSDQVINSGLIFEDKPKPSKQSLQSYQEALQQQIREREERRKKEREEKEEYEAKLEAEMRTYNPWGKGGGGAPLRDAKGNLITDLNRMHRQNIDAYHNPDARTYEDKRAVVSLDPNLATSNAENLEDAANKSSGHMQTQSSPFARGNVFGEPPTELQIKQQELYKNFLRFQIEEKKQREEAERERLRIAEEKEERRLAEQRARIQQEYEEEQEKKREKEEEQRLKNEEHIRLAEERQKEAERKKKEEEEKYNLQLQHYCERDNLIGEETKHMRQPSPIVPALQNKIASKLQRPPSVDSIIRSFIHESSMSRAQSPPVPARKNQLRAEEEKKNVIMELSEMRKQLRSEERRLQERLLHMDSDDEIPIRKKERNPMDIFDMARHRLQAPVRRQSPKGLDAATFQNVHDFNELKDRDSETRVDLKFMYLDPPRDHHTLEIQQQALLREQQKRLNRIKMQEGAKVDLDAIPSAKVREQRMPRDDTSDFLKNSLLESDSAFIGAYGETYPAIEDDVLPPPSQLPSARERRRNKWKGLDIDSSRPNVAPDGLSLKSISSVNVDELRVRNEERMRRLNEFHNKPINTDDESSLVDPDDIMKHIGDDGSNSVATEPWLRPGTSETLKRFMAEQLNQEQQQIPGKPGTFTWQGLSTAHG
UniProt Q5VZ89: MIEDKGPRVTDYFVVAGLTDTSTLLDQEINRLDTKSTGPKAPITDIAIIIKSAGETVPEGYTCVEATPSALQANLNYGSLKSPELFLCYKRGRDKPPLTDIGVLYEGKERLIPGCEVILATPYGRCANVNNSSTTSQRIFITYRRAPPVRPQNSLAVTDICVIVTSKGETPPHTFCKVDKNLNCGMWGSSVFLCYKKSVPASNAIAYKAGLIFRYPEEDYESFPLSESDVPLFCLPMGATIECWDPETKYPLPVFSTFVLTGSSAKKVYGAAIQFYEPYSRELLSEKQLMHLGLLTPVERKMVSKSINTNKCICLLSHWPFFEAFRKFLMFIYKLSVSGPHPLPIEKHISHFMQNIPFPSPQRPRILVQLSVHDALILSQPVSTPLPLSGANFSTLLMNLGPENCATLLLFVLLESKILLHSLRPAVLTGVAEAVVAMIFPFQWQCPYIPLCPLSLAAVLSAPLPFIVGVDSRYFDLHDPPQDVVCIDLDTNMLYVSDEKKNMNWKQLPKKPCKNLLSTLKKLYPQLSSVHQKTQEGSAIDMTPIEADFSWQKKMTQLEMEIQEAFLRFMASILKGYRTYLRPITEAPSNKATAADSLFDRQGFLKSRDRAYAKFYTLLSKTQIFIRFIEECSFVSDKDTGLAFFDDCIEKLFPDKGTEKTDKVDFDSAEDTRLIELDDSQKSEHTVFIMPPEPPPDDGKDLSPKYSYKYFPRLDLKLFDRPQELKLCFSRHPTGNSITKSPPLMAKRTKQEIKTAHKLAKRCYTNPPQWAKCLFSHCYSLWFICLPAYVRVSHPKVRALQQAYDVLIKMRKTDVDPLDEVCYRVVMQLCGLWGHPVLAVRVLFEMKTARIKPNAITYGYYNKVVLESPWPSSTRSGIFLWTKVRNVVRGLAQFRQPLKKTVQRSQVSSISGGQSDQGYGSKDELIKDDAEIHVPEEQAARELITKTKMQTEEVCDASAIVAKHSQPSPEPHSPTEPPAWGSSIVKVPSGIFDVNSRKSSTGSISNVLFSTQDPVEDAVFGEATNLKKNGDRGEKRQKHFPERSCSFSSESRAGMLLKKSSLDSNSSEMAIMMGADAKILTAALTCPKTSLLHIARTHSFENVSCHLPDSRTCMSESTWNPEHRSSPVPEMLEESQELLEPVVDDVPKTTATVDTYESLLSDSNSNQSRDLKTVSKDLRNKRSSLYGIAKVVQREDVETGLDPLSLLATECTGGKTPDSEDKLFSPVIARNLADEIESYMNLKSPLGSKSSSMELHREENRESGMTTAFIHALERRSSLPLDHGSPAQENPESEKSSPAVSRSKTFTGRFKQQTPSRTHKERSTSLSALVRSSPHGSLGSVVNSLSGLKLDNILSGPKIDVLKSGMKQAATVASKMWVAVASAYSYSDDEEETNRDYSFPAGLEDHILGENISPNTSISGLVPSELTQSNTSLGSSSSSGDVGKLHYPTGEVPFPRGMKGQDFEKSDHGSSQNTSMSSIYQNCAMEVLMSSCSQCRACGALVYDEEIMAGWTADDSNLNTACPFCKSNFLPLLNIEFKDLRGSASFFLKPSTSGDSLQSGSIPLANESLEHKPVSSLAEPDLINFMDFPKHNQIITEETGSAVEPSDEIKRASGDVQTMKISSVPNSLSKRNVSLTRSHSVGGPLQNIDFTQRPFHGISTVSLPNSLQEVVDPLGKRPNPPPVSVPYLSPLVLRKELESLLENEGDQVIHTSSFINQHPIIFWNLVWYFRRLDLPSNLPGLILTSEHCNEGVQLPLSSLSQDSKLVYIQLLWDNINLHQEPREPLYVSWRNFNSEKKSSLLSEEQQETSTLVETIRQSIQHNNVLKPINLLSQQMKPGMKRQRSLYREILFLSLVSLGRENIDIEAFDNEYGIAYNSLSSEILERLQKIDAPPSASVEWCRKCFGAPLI
UniProt Q96N67: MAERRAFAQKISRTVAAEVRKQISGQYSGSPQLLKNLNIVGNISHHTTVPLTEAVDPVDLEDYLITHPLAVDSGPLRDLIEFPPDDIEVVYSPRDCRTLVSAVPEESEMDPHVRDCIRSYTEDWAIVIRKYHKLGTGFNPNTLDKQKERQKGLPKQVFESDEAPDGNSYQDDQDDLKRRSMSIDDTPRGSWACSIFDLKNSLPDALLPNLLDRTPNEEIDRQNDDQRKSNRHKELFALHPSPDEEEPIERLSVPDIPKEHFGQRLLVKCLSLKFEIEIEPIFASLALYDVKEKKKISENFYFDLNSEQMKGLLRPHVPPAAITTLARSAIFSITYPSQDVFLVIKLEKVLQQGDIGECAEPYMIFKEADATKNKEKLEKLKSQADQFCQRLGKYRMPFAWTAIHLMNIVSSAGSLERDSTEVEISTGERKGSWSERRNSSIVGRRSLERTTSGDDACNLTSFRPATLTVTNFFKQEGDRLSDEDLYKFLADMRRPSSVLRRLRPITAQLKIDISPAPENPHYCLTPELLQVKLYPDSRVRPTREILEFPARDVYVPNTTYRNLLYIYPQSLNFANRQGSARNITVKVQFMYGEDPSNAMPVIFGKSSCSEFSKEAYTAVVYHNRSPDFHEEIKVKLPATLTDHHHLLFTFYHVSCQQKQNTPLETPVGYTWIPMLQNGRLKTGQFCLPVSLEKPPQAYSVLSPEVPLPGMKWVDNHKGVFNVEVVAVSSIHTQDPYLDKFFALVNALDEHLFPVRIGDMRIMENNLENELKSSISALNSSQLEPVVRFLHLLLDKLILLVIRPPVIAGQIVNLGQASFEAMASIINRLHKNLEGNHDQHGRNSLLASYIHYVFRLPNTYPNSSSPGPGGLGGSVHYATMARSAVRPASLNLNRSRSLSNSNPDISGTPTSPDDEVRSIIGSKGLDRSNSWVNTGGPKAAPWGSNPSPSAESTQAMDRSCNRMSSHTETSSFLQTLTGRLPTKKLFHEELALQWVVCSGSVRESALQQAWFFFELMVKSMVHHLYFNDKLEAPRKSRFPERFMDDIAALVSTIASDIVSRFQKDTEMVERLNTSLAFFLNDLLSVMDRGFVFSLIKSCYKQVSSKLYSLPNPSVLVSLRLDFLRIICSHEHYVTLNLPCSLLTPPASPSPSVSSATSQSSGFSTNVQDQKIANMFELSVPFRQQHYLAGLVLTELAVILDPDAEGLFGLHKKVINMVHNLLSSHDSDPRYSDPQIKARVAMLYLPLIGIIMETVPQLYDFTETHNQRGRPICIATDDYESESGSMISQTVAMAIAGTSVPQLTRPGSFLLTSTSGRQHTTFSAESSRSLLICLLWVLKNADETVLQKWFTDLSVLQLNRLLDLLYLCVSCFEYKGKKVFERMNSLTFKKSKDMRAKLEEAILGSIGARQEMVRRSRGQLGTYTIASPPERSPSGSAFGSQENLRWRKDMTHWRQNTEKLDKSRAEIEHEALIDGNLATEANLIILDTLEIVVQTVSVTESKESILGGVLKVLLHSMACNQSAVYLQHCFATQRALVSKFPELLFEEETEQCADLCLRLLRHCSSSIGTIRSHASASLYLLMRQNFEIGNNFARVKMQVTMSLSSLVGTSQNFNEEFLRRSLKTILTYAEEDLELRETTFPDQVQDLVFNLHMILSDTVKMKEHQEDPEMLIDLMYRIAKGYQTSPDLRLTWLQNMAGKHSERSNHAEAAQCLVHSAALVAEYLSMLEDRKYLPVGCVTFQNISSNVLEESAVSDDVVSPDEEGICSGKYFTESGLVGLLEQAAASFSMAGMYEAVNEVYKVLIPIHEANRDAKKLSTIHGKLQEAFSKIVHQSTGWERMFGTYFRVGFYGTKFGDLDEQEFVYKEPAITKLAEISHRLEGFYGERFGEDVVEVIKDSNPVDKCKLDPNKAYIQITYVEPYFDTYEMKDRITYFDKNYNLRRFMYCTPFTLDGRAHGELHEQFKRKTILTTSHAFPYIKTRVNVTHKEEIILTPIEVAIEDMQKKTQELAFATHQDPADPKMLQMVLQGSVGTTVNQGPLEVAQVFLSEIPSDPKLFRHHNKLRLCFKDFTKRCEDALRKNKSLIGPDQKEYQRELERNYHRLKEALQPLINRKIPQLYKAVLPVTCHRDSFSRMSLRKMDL
UniProt Q9H773: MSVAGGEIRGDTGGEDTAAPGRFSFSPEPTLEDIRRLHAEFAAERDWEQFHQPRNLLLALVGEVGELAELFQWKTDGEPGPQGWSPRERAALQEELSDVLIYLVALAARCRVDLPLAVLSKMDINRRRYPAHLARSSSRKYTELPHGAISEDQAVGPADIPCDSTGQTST
UniProt Q8WVE0: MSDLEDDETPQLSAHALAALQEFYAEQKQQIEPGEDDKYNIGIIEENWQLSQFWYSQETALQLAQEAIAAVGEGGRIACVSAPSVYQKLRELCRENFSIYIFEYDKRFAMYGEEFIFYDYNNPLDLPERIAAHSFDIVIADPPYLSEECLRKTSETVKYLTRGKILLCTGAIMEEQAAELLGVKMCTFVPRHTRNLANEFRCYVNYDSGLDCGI
UniProt Q13409, whole entry: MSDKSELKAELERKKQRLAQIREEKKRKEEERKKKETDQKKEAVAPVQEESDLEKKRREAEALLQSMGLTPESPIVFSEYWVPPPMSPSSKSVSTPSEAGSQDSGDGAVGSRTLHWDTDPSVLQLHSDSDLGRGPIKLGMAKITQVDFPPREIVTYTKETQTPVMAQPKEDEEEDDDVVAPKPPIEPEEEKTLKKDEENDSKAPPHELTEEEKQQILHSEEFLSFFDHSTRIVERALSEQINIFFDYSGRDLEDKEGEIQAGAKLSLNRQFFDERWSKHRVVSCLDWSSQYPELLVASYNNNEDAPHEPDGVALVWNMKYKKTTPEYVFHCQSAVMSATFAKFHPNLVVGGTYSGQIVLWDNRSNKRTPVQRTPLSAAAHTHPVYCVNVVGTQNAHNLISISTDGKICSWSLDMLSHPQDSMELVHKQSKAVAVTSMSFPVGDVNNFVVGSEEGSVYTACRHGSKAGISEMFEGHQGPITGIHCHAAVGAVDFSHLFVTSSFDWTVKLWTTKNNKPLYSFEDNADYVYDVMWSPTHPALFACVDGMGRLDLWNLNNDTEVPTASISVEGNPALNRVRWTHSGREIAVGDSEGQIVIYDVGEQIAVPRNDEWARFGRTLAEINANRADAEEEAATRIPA

Compound: Nc1nc2c(ncn2[C@@H]2O[C@H](COP(=O)(O)OP(=O)(O)OP(=O)(O)O)[C@@H](O)[C@H]2O)c(=O)[nH]1
Assay: dose-dependent thermal stabilisation call (2D-TPP, DLPTP, 10% FDR) (binary (1 = stabilised)); higher = stabilised by the compound
Conditions: system: Jurkat gel-filtered lysate; concentration range 1-500 µM

dose-dependent thermal stabilisation call, inactive:
DR1 (UniProt Q01658) 0, CUL3 (UniProt Q13618) 0, CROCC (UniProt Q5TZA2) 0, DYNLRB1 (UniProt Q9NP97) 0, DHRS11 (UniProt Q6UWP2) 0, DIP2A (UniProt Q14689) 0, DHX29 (UniProt Q7Z478) 0, CSPP1 (UniProt Q1MSJ5) 0, DDX19A (UniProt Q9NUU7) 0, CSTF2T (UniProt Q9H0L4) 0, DENND4C (UniProt Q5VZ89) 0, CUX1 (UniProt P39880) 0, DNTTIP2 (UniProt Q5QJE6) 0, DENND1A (UniProt Q8TEH3) 0, DCTN4 (UniProt Q9UJW0) 0, DOCK7 (UniProt Q96N67) 0, DCTPP1 (UniProt Q9H773) 0, DAG1 (UniProt Q14118) 0, DYNC1H1 (UniProt Q14204) 0, DPCD (UniProt Q9BVM2) 0, CYFIP1 (UniProt Q7L576) 0, DOHH (UniProt Q9BU89) 0, CRACR2A (UniProt Q9BSW2) 0, EEF1AKMT1 (UniProt Q8WVE0) 0, DDX58 (UniProt O95786) 0, DDHD2 (UniProt O94830) 0, DMTF1 (UniProt Q9Y222) 0, CSTF2 (UniProt P33240) 0

dose-dependent thermal stabilisation call, active:
CRYZL1 (UniProt O95825) 1, DPH2 (UniProt Q9BQC3) 1, DYNC1I2 (UniProt Q13409) 1, DHX40 (UniProt Q8IX18) 1, DTYMK (UniProt P23919) 1, DHX8 (UniProt Q14562) 1, DYM (UniProt Q7RTS9) 1, DSCC1 (UniProt Q9BVC3) 1
